The values below come from the supplement of paper PMC12889115.

This assay relates to Salmonella enterica serovar Typhimurium SL1344. Kind of assay: bacterial growth OD600 after 18 h with compound and polymyxin B; higher = more bacterial growth (less inhibition). As to conditions: 50 µM, Mueller-Hinton broth.

The list shows a part of the results. These are raw signals, not scaled to a control.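 In the initial screen, polymyxin B was used at a concentration that permeabilizes Salmonella's outer membrane but not its inner membrane. Maximum growth was set by DMSO wells with or without polymyxin B. Since plates varied, data were ranked per plate, and compounds giving the lowest OD600 advanced as hits.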

As to `O=C(NCc1cccnc1N1CCCC(O)C1)C1(c2ccccc2F)CC1` (centres undefined), where the note is “polymyxin B 0.75 µg/mL”, the “bacterial growth OD600” value was 0.853.

In the case of `CCNC(=O)c1cn(CCc2ccccc2)cc(C(=O)N2CCN(c3ccccc3C)CC2)c1=O`, the “bacterial growth OD600” value (polymyxin B 0.75 µg/mL) is 0.999.

Turning to `COc1ccc(NC(=O)NC2CC(=O)N(C3CCCCCC3)C2)cc1` (centres undefined), the “bacterial growth OD600” value (polymyxin B 1 µg/mL) turned out to be 0.946.

In the case of `CCCNc1ccc(C(=O)N2CCCN(c3ncccn3)CC2)cn1`, the “bacterial growth OD600” value (polymyxin B 1 µg/mL) is 0.896.

On to `Cc1nc(-c2ccncc2)ncc1C(C)NCc1nc2ccccc2[nH]1` (centres undefined), for which the “bacterial growth OD600” value (polymyxin B 0.75 µg/mL) stood at 0.777.

For `O=C(NC1CCCC1)C1CCCN(C2CCN(C(=O)C3CC3)CC2)C1` (centres undefined), the “bacterial growth OD600” value (polymyxin B 1 µg/mL) came to 0.823.

As for `CC(=O)c1ccc(C(=O)N2CCOc3ccc(CN4CCC(OCc5ccccc5)CC4)cc3C2)cc1`, the “bacterial growth OD600” value (polymyxin B 0.75 µg/mL) was 0.89.

On to `Cc1ncsc1C(=O)N1CCOC(CCCC(C)C)C1` (centres undefined), for which the “bacterial growth OD600” value (polymyxin B 1 µg/mL) was determined as 0.862.

In the case of `O=C(NCc1ccc(Cl)cc1)C1CCCN(C2CCN(C(=O)C3CC3)CC2)C1` (centres undefined), under “polymyxin B 0.75 µg/mL”, the “bacterial growth OD600” value is 0.924.
